Patent US20220133889A1
No constants are given. Whether binding was seen depends on the method and setting. Some results given as binding are weak or reduced against the parent protein; the word gives no strength.

Columns and labels:
[1] = target: cynomolgus TIM-3 expressed on transfected cells (cynomolgus); experiment: flow cytometry on cells transfected with cynoTIM-3
[2] = target: cynomolgus TIM-3 expressed on transfected cells (cynomolgus); experiment: flow cytometry on transfected cells
[3] = target: cynomolgus TIM-3 expressed on transfected cells (cynomolgus); experiment: binding curves on transfected cells (FIGS. 2A-2E)

Measured: binding

B1: ABTIM3 (antibody, V domains shown)
VH: QVQLQQPGAELVKPGASVKMSCKASGYTFTSYNMHWIKQTPGQGLEWIGDIYPGNGDTSYNQKFKGKATLTADKSSSTVYMQLSSLTSEDSAVYYCARVGGAFPMDYWGQGTSVTVSS
VL: DIVLTQSPASLAVSLGQRATISCRASESVEYYGTSLMQWYQQKPGQPPKLLIYAASNVESGVPARFSGSGSGTDFSLNIHPVEEDDIAIYFCQQSRKDPSTFGGGTKLEIK
binds: all assays above
